PMC8232204
These are yes or no findings as the source states them, for the method shown. Binding seen in cells or lysates may run through a third protein. Some binding calls cover weakened binding; strength is not graded here. Where a sequence is shown, tags or fusion partners need not be part of it.

Experiments:
Test in all cases: co-IP; whole-cell extracts (5 mg total protein) of vegetatively growing S. pombe strains; anti-HA (12CA5) and protein A sepharose, 4 h at 4 °C; washes up to 500 mM NaCl; blots with anti-HA (Pmk1–HA) and anti-GFP (Pek1–GFP)
[1] = target: T1, Pmk1^Sj–HA (S. japonicus wild-type Pmk1 construct) (S. japonicus) (UniProt B6K747)
T1 sequence: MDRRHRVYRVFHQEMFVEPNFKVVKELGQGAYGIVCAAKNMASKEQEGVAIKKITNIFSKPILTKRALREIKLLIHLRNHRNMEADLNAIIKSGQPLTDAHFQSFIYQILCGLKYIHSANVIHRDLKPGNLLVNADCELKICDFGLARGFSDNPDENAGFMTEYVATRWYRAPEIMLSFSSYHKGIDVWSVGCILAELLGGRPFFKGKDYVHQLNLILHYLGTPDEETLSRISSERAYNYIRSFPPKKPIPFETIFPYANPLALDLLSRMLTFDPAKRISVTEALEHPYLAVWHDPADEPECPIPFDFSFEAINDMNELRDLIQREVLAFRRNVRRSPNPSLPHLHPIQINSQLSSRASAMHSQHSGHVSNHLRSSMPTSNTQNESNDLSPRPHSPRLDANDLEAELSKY

[2] = target: T2, Pmk1^Sp–HA (S. pombe wild-type Pmk1 construct) (S. pombe) (UniProt Q92398)
T2 sequence: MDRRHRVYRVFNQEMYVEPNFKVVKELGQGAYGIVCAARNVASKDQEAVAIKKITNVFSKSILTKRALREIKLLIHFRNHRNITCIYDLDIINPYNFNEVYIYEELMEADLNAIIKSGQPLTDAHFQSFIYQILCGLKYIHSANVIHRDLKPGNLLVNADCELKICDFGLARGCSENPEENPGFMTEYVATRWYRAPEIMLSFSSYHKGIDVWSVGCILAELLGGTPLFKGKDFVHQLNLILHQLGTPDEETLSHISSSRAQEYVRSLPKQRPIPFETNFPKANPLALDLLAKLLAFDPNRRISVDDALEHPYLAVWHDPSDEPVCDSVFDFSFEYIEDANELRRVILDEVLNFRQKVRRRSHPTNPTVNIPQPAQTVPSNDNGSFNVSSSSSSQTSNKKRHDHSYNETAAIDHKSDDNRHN

[3] = target: T3, Pmk1^Sp (Δ82-105)–HA (S. pombe Pmk1 version lacking the conserved N-lobe motif) (S. pombe) (UniProt Q92398)
T3 sequence: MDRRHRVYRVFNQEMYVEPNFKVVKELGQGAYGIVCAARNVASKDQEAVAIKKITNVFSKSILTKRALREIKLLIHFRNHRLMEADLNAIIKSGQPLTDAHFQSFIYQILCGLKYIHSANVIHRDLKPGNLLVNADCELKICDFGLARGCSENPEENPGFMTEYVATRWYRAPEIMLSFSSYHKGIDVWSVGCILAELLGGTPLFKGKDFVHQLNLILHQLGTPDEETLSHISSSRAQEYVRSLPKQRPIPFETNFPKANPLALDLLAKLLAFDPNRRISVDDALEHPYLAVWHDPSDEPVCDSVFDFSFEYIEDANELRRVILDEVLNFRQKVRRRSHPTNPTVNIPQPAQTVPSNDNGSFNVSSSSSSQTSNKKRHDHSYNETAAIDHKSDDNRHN

B1: Pek1–GFP (MAPKK) genomic fusion (enzyme, UniProt Q9Y884 1-363)
chain: MSKKPVLNLDTSNGFSEEYISHPERNDNQGIVEITDLVFSSESKLTQRKESRDSKTFVPSFLEELDDDHLHELVTNGGILYMNSLGEGVSGSVRKCRIRGTQMIFAMKTVLAAPNTALQKQLLRELKINRSCTSPYIVKYYGACYNNAECQLNIAMEYCGAGSLDAIYKRVRSQGGRTGERPLGKIAFGVLSGLSYLHDRKIIHRDIKPSNILLTSKGQVKLCDFGVSGELVNSLAGTFTGTSYYMAPERISGGSYTISSDIWSLGLTLMEVALNRFPFPPEGSPPPMPIELLSYIINMPPPLLPQEPGIKWSKSFQHFLCVCLDKDKTRRPGPQKMLTHPWVKAFERIHVDMEEFLRQVWSD
binding [1]: binds | binding [2]: binds | binding [3]: no binding
